PubChem BioAssay AID1259254 – NCATS – 2017
The deposit covers about 59,000 reagents; shown is a part drawn at random. About 1,550 of all reagents (2.6%) count as active. 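G2 share is only a proxy for re-replication; each gene was hit by three separate siRNAs, and active genes were retested.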 Entries without a mark were called inactive. Reagents against one gene are numbered here. Not all columns of the deposit are shown. The record does not give: the amount of reagent.

- Test: 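Genome-wide screen for genes that prevent DNA re-replication in cancer cells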 (primary screen)
- Cell system: human HCT116 colorectal cancer cells
- Reagent: single siRNA against human genes
- Duration: 3 days
- Measurement: 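Nuclei stained with Hoechst and imaged; cell-cycle phase assigned by DNA content; G2 share scaled per plate, non-targeting siRNA 0%, GMNN siRNA 100%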
- Scale: G2 robust z-score: higher = more G2 cells, more excess DNA replication
- Call rule: 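Active siRNAs have a G2 robust z of 5 or more median absolute deviations over the median, which in these data means about 38% or higher of GMNN control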

G2 robust z-score, by target gene and reagent
HERC3 (HECT and RLD domain containing E3 ubiquitin protein ligase 3): #1 -0.764; #2 -0.51; #3 2.1
RNASE1 (ribonuclease A family member 1, pancreatic): #1 1.15; #2 -0.588; #3 0.698
GPX5 (glutathione peroxidase 5): #1 -0.658; #2 0.168; #3 5.98 (active)
FOLH1 (folate hydrolase 1): #1 -0.995; #2 2.84; #3 2.84
AP3S1 (adaptor related protein complex 3 subunit sigma 1): #1 0.241; #2 1.25; #3 -0.00886
LINC01556 (long independently transcribed non-coding RNA 1556): #1 -0.338; #2 -0.391; #3 1.54
STAG3 (STAG3 cohesin complex component): #1 0.433; #2 -0.455; #3 -0.073
GNA13 (G protein subunit alpha 13): #1 0.371; #2 1.26; #3 0.189
GGPS1 (geranylgeranyl diphosphate synthase 1): #1 -0.451; #2 -0.569; #3 0.81
SLC38A3: #1 0.181; #2 -1.13; #3 -0.505
MAGEA8 (MAGE family member A8): #1 0.63; #2 -0.198; #3 -0.664
TSTD2 (thiosulfate sulfurtransferase like domain containing 2): #1 -0.44; #2 1.17; #3 -0.64
TMTC4 (transmembrane O-mannosyltransferase targeting cadherins 4): #1 1.52; #2 -1.04; #3 -0.0816
NEIL2 (nei like DNA glycosylase 2): #1 -0.594; #2 0.481; #3 -0.0445
KRTAP3-3 (keratin associated protein 3-3): #1 2; #2 0.0921; #3 2.92
RIPPLY2 (ripply transcriptional repressor 2): #1 2.14; #2 -0.764; #3 0.154

Targets above whose gene name starts with M or m:
G2 robust z-score, by target gene and reagent
MAGEA8 (MAGE family member A8): #1 0.63; #2 -0.198; #3 -0.664
